These are yes or no findings as the source states them, for the method shown. In cells and extracts the contact can be indirect. These calls come from enrichment with a bait or labelling near it, and not all partners need be listed. For some of these results: No binding means not detected with the bait. Sequences can lack the tags named with a protein.
T1: SFB-DGCR8 (triple epitope: S-protein, FLAG tag and streptavidin-binding peptide-tagged DGCR8) (human) (UniProt Q8WYQ5)
T1 sequence: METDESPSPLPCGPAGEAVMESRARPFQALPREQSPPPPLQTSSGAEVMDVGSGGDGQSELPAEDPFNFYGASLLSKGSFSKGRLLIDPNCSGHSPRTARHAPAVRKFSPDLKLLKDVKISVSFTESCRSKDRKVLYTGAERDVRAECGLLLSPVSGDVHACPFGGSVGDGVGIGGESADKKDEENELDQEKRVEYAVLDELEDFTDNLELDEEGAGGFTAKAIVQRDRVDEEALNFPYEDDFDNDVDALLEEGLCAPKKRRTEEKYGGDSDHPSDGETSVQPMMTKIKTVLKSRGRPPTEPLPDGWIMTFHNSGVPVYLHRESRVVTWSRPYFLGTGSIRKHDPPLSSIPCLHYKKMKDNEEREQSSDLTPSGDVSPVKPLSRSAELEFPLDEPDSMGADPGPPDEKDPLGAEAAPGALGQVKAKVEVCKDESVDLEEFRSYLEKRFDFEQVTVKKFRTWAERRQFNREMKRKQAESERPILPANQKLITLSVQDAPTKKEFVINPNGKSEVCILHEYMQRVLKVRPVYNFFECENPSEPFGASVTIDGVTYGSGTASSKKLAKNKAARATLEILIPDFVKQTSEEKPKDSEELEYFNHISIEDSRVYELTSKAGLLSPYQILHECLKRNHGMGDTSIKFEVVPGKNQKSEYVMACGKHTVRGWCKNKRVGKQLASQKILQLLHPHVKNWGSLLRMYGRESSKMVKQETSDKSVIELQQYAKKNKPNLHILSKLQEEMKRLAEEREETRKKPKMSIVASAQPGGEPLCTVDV

Amino acid sequences for entries named in this document (tags omitted).
UniProt Q14676: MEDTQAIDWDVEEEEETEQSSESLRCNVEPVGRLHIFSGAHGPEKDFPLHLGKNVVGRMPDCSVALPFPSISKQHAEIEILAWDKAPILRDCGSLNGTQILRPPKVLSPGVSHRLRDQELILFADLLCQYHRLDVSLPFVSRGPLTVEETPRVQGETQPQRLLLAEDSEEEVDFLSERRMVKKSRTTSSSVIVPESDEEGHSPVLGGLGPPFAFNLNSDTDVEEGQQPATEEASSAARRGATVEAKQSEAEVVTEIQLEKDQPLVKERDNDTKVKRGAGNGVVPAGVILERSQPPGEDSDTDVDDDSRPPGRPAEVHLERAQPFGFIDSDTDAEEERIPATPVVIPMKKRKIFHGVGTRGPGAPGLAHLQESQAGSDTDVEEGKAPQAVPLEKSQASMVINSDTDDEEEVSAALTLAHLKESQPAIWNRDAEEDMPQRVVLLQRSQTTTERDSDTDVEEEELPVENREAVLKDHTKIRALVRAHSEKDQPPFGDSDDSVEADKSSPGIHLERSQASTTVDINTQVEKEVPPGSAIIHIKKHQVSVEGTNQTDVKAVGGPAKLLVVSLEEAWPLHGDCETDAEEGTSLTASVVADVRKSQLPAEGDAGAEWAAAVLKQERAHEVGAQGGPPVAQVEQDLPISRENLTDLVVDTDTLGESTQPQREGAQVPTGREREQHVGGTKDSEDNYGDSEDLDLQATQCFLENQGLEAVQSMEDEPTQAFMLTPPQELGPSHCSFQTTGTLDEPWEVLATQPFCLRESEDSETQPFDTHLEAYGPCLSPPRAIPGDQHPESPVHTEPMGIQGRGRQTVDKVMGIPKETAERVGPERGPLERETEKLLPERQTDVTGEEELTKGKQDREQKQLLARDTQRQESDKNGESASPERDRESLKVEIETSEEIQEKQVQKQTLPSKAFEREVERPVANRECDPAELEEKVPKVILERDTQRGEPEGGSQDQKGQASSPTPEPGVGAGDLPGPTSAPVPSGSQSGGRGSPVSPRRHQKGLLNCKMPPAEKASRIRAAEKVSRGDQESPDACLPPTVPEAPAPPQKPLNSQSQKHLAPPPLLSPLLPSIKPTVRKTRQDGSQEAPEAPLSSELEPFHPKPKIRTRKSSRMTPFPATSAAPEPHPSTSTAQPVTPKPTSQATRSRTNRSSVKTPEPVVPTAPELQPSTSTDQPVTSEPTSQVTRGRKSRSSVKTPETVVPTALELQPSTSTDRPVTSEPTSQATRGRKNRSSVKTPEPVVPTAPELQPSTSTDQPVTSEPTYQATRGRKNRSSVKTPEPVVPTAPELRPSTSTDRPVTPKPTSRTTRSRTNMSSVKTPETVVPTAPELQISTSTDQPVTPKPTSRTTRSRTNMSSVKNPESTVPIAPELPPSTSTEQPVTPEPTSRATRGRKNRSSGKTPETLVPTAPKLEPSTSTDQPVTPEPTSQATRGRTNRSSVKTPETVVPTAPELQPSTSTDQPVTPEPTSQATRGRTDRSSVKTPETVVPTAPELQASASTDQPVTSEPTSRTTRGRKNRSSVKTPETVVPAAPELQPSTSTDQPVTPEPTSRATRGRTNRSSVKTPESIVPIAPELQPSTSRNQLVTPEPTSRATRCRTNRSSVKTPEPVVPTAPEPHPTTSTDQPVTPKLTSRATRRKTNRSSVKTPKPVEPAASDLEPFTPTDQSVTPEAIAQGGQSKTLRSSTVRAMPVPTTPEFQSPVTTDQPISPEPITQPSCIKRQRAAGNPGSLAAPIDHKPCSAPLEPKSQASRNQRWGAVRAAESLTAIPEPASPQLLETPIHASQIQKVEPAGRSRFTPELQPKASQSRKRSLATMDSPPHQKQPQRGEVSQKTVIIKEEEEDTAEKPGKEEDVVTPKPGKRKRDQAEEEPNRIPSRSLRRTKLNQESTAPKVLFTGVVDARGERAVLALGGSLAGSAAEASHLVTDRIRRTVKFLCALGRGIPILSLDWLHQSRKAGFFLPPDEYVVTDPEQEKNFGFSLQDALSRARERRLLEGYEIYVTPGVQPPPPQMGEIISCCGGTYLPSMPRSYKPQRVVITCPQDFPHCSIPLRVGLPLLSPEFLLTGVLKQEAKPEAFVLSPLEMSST
UniProt Q7Z6E9: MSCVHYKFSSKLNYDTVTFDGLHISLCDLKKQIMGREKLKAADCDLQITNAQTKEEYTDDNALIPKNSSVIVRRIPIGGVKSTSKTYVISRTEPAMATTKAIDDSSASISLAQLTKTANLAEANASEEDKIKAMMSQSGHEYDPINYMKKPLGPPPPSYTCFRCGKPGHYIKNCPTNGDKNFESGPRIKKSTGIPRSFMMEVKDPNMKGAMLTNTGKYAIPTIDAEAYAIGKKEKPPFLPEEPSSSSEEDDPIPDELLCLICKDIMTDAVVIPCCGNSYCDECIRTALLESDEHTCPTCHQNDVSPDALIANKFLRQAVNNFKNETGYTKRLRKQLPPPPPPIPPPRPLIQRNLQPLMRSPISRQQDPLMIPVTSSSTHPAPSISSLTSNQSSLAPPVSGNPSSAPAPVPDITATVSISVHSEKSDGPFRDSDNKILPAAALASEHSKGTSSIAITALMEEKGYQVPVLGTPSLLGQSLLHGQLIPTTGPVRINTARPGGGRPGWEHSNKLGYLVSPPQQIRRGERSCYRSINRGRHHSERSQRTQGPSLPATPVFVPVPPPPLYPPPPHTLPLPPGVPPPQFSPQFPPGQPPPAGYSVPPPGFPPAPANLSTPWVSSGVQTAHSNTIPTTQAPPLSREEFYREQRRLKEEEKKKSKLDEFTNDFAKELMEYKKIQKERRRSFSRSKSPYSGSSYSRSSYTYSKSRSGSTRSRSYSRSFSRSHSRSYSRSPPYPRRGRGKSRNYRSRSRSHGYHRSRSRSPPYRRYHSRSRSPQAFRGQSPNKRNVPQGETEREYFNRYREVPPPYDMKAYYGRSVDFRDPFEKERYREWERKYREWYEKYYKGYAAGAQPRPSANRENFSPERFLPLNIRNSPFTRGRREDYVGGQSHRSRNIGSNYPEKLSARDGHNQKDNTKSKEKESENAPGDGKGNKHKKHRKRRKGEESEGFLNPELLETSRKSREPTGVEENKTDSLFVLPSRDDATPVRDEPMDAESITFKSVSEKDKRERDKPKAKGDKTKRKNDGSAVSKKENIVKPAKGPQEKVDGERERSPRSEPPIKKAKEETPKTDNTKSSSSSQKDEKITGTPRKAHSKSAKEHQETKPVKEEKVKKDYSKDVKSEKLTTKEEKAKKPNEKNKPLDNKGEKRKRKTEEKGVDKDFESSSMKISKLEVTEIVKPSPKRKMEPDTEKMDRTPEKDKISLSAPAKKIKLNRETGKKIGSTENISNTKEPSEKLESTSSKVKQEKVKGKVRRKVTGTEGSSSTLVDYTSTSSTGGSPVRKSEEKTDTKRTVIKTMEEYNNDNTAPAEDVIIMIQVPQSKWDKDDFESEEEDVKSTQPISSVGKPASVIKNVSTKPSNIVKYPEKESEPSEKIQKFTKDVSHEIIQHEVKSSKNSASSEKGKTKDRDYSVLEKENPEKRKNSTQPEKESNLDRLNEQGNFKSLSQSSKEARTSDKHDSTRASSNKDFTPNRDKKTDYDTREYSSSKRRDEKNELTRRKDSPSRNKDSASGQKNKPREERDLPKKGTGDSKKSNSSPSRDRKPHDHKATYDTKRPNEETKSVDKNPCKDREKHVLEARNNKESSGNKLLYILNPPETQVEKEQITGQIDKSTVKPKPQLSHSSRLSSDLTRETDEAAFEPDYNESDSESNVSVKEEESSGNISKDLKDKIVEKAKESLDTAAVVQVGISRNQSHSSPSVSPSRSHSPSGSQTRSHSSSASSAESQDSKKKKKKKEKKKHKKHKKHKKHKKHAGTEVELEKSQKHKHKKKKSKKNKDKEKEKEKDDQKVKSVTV
UniProt Q8IYW5: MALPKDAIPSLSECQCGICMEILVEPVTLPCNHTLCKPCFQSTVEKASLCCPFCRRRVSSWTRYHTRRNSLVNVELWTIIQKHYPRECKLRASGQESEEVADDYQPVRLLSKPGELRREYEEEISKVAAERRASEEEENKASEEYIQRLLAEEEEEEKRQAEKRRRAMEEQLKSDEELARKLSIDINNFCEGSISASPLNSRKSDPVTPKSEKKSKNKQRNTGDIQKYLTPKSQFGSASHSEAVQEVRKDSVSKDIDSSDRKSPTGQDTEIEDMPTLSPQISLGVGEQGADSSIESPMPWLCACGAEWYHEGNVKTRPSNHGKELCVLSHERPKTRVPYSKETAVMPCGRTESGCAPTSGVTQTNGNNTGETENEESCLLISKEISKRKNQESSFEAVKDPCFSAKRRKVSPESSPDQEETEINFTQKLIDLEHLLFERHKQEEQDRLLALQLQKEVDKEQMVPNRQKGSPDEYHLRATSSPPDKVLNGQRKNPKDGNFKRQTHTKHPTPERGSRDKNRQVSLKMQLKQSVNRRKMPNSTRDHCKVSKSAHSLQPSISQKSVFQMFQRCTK
UniProt Q9UNE7: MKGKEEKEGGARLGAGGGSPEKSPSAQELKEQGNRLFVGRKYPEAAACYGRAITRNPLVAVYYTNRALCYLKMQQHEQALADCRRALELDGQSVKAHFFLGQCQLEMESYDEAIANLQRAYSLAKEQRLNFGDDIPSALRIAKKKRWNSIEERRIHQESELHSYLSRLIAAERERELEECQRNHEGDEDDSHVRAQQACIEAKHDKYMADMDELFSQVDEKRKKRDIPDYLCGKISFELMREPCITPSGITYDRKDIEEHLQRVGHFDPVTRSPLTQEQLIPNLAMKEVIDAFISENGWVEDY


Experiments:
[1] = biological target: T1, SFB-DGCR8 (triple epitope: S-protein, FLAG tag and streptavidin-binding peptide-tagged DGCR8) (human); assay: affinity purification with mass spectrometry; SFB-DGCR8 transfected into LM2 cells, with or without 8 Gy X-rays followed by 1 h; tandem purification on streptavidin-sepharose beads then S-protein agarose beads, NETN buffer, 4 °C
[2] = biological target: T1, SFB-DGCR8 (triple epitope: S-protein, FLAG tag and streptavidin-binding peptide-tagged DGCR8) (human); assay: affinity purification with mass spectrometry; as a1, the non-irradiated LM2 cells only

| Molecule | binding [1] | binding [2] |
| --- | --- | --- |
| MDC1 (endogenous) (from UniProt Q14676 1-2089) | binds | no binding (only non-irradiated cells) |
| RBBP6 (from UniProt Q7Z6E9 1-1792) (enzyme) | binds | – |
| RNF168 (endogenous) (from UniProt Q8IYW5 1-571) (enzyme) | binds | – |
| ZFP91 (enzyme, UniProt Q96JP5 1-570) MPGETEEPRPPEQQDQEGGEAAKAAPEEPQQRPPEAVAAAPAGTTSSRVLRGGRDRGRAAAAAAAAAVSRRRKAEYPRRRRSSPSARPPDVPGQQPQAAKSPSPVQGKKSPRLLCIEKVTTDKDPKEEKEEEDDSALPQEVSIAASRPSRGWRSSRTSVSRHRDTENTRSSRSKTGSLQLICKSEPNTDQLDYDVGEEHQSPGGISSEEEEEEEEEMLISEEEIPFKDDPRDETYKPHLERETPKPRRKSGKVKEEKEKKEIKVEVEVEVKEEENEIREDEEPPRKRGRRRKDDKSPRLPKRRKKPPIQYVRCEMEGCGTVLAHPRYLQHHIKYQHLLKKKYVCPHPSCGRLFRLQKQLLRHAKHHTDQRDYICEYCARAFKSSHNLAVHRMIHTGEKPLQCEICGFTCRQKASLNWHMKKHDADSFYQFSCNICGKKFEKKDSVVAHKAKSHPEVLIAEALAANAGALITSTDILGTNPESLTQPSDGQGLPLLPEPLGNSTSGECLLLEAEGMSKSYCSGTERVSLMADGKIFVGSGSSGGTEGLVMNSDILGATTEVLIEDSDSAGP | binds | – |

Continued, values first:

| binding [1] | binding [2] | Molecule |
| --- | --- | --- |
| binds | – | CHIP (from UniProt Q9UNE7 1-303) (enzyme) |
| binds | – | HUWE1 (from UniProt Q7Z6Z7 1-4374) (enzyme) |
| binds | no binding (only non-irradiated cells) | RNF8 (endogenous) (enzyme, UniProt O76064 1-485) MGEPGFFVTGDRAGGRSWCLRRVGMSAGWLLLEDGCEVTVGRGFGVTYQLVSKICPLMISRNHCVLKQNPEGQWTIMDNKSLNGVWLNRARLEPLRVYSIHQGDYIQLGVPLENKENAEYEYEVTEEDWETIYPCLSPKNDQMIEKNKELRTKRKFSLDELAGPGAEGPSNLKSKINKVSCESGQPVKSQGKGEVASTPSDNLDPKLTALEPSKTTGAPIYPGFPKVTEVHHEQKASNSSASQRSLQMFKVTMSRILRLKIQMQEKHEAVMNVKKQTQKGNSKKVVQMEQELQDLQSQLCAEQAQQQARVEQLEKTFQEEEQHLQGLEIAQGEKDLKQQLAQALQEHWALMEELNRSKKDFEAIIQAKNKELEQTKEEKEKMQAQKEEVLSHMNDVLENELQCIICSEYFIEAVTLNCAHSFCSYCINEWMKRKIECPICRKDIKSKTYSLVLDNCINKMVNNLSSEVKERRIVLIRERKAKRLF |
| binds | – | ZNF598 (enzyme, UniProt Q86UK7 1-904) MAAAGGAEGRRAALEAAAAAAPERGGGSCVLCCGDLEATALGRCDHPVCYRCSTKMRVLCEQRYCAVCREELRQVVFGKKLPAFATIPIHQLQHEKKYDIYFADGKVYALYRQLLQHECPRCPELPPFSLFGDLEQHMRRQHELFCCRLCLQHLQIFTYERKWYSRKDLARHRMQGDPDDTSHRGHPLCKFCDERYLDNDELLKHLRRDHYFCHFCDSDGAQDYYSDYAYLREHFREKHFLCEEGRCSTEQFTHAFRTEIDLKAHRTACHSRSRAEARQNRHIDLQFSYAPRHSRRNEGVVGGEDYEEVDRYSRQGRVARAGTRGAQQSRRGSWRYKREEEDREVAAAVRASVAAQQQEEARRSEDQEEGGRPKKEEAAARGPEDPRGPRRSPRTQGEGPGPKETSTNGPVSQEAFSVTGPAAPGCVGVPGALPPPSPKLKDEDFPSLSASTSSSCSTAATPGPVGLALPYAIPARGRSAFQEEDFPALVSSVPKPGTAPTSLVSAWNSSSSSKKVAQPPLSAQATGSGQPTRKAGKGSRGGRKGGPPFTQEEEEDGGPALQELLSTRPTGSVSSTLGLASIQPSKVGKKKKVGSEKPGTTLPQPPPATCPPGALQAPEAPASRAEGPVAVVVNGHTEGPAPARSAPKEPPGLPRPLGSFPCPTPQEDFPALGGPCPPRMPPPPGFSAVVLLKGTPPPPPPGLVPPISKPPPGFSGLLPSPHPACVPSPATTTTTKAPRLLPAPRAYLVPENFRERNLQLIQSIRDFLQSDEARFSEFKSHSGEFRQGLISAAQYYKSCRDLLGENFQKVFNELLVLLPDTAKQQELLSAHTDFCNREKPLSTKSKKNKKSAWQATTQQAGLDCRVCPTCQQVLAHGDASSHQALHAARDDDFPSLQAIARIIT |
